Data: patent publication US20260007717A1 (priority 2022, published 2026)
Non-standard residues stand in square brackets, D forms with d. Residues, ends and D or L forms follow the SMILES beside them. Aib = CC(C)(N)C(=O)O

Legend:
[1] = test system: A. baumannii YQ4; test: Live/Dead SYTO-9 / propidium iodide staining, CLSM; type: cell-based, Acinetobacter baumannii; settings: COG1410 1×MIC, polymyxin B 5×MIC, 30 min
[2] = test system: plasmid pUC18; test: DNA binding gel retardation
[3] = peptide made by a vendor (Fmoc solid-phase peptide synthesis); settings: whole synthesis, HPLC and Mass Spectrometry

## polymyxin B [reference compound]
[1]
  SYTO-9 / PI staining of treated cells: red fluorescence

## CC(=O)N[C@@H](C)C(=O)N[C@@H](CO)C(=O)NC(C)(C)C(=O)N[C@@H](CC(C)C)C(=O)N[C@@H](CCCNC(=N)N)C(=O)N[C@@H](CCCCN)C(=O)N[C@@H](CC(C)C)C(=O)NC(C)(C)C(=O)N[C@@H](CCCCN)C(=O)N[C@@H](CCCNC(=N)N)C(=O)N[C@@H](CC(C)C)C(=O)N[C@@H](CC(C)C)C(N)=O [SEQ ID NO: 1, acetyl-AS-aib-LRKL-aib-KRLL-amide] (Ac-AS[Aib]LRKL[Aib]KRLL-NH2)
[2]; 1×MIC
  electrophoretic mobility of plasmid pUC18: only a fraction of the DNA migrated into the gel
[2]; higher concentrations
  electrophoretic mobility of plasmid pUC18: completely retarded

## Ac-AS[Aib]LRKL[Aib]KRLL-NH2
[3]
  purity (crude or final not stated): 95%
